Source: article PMC11417407
No constants are given. Whether binding was seen depends on the method and setting. For part of these data: In cells and extracts the contact can be indirect.

Chains of the proteins cited; added tags and fusions are not shown. Lines headed by an entry give the natural chain unless they say otherwise; changes in a name come on top.
UniProt O14893: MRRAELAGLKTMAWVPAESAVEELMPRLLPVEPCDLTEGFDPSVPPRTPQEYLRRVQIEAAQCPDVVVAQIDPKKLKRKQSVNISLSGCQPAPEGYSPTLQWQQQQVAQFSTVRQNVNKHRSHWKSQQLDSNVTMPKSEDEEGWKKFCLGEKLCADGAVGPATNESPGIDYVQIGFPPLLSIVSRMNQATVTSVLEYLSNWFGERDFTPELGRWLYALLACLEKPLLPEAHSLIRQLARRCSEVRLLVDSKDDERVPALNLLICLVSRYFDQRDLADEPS
UniProt Q9UHI6: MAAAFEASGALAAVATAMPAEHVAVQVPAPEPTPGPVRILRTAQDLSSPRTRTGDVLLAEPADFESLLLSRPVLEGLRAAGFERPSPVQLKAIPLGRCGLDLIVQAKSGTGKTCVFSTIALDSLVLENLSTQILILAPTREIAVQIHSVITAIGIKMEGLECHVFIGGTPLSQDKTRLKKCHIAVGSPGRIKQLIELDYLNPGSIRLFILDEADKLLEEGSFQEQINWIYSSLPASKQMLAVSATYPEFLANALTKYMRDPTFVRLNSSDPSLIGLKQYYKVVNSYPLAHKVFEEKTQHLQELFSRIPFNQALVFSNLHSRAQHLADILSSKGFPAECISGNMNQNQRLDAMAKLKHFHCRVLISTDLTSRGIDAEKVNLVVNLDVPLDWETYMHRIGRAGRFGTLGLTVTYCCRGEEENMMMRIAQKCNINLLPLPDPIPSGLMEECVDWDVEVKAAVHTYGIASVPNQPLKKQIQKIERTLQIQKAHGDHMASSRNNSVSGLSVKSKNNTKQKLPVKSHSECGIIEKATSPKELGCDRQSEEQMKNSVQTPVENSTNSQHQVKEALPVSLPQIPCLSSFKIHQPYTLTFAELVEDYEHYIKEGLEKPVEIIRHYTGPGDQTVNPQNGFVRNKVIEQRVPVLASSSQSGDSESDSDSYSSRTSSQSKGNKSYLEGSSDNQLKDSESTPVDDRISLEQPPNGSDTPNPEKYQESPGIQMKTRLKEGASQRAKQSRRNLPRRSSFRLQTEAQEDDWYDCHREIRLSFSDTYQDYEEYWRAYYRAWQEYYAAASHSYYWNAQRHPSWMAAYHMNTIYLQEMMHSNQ
UniProt Q13838: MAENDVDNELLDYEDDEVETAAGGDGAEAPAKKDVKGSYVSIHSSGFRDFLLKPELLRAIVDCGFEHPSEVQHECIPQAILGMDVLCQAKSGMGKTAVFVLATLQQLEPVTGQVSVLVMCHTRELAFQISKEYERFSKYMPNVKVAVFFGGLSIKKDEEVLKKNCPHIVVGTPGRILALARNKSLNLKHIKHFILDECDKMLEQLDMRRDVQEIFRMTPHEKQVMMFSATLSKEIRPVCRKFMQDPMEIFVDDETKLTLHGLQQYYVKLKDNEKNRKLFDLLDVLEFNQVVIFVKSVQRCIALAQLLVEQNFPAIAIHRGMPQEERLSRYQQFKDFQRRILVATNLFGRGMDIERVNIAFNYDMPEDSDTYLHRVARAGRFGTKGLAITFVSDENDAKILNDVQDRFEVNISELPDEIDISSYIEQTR

What was measured:
[1] = molecular target: GST-PHAX (UniProt Q9H814); test: pull-down; GST or GST-PHAX with HeLa nuclear extracts (HNEs), RNase A, with or without 0.5 mM ATP, 20 mM creatine phosphate, 2 mM MgCl2, 30°C 20 min; Glutathione Sepharose, washes in RSB100N; western blotting; only the target purified
[2] = molecular target: GST-PHAX (UniProt Q9H814); test: pull-down; purified GST-PHAX and purified FLAG-helicase mixed in the presence of HNEs, 0.5 mM ATP (or without), 20 mM creatine phosphate, 2 mM MgCl2, RNase A, 30°C 20 min; Glutathione Sepharose; anti-FLAG western blotting; both purified

| binding [1] | binding [2] | Substance |
| --- | --- | --- |
| no binding |  | GEMIN2 (endogenous, HeLa nuclear extract) (from UniProt O14893 1-280) |
| no binding |  | GEMIN3/DDX20 (endogenous, HeLa nuclear extract) (from UniProt Q9UHI6 1-824) |
|  | no binding | FLAG-UAP56 K95E mutant (from UniProt Q13838 1-428) (enzyme) |
